Results taken from patent US20050037969A1.
No constants are given. Whether binding was seen depends on the method and setting. For some of these results: Binding seen in cells or lysates may run through a third protein. Some binding calls cover weakened binding; strength is not graded here. For some of these results: Where a sequence is shown, tags or fusion partners need not be part of it.

Chains of the proteins cited; added tags and fusions are not shown. Lines headed by an entry give the natural chain unless they say otherwise; changes in a name come on top.
UniProt Q14005: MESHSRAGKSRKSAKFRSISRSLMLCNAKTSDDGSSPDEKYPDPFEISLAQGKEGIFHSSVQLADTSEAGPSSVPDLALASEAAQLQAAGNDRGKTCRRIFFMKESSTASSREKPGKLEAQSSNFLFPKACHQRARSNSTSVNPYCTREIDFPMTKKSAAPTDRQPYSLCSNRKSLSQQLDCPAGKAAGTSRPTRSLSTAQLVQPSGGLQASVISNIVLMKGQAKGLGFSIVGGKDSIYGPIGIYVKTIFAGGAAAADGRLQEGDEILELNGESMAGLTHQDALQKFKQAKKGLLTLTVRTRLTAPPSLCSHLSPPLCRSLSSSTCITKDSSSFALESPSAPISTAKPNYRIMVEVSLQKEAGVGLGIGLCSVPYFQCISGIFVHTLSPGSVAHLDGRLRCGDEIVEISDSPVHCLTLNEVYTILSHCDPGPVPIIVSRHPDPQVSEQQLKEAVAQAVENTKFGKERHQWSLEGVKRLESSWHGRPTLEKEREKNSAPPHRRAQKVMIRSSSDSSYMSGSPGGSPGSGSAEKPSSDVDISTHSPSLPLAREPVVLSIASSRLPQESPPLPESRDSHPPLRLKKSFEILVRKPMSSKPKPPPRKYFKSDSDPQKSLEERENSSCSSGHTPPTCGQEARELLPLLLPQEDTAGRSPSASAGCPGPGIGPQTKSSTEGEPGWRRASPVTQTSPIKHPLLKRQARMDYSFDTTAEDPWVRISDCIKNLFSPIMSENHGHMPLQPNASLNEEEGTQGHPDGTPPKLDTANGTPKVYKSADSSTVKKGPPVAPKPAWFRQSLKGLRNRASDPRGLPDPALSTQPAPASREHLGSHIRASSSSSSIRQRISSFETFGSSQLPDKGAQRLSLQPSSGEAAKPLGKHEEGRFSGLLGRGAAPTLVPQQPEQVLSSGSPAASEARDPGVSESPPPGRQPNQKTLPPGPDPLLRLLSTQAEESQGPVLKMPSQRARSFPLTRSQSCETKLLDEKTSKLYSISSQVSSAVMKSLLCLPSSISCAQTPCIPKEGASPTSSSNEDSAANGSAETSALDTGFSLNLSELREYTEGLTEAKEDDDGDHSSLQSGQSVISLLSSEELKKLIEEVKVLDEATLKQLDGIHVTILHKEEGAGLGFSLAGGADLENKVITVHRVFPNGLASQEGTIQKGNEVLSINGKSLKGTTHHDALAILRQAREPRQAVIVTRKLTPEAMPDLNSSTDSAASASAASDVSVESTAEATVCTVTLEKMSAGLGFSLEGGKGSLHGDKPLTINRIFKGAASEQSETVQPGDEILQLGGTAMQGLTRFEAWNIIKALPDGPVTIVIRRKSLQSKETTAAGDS
UniProt Q6P0Q8: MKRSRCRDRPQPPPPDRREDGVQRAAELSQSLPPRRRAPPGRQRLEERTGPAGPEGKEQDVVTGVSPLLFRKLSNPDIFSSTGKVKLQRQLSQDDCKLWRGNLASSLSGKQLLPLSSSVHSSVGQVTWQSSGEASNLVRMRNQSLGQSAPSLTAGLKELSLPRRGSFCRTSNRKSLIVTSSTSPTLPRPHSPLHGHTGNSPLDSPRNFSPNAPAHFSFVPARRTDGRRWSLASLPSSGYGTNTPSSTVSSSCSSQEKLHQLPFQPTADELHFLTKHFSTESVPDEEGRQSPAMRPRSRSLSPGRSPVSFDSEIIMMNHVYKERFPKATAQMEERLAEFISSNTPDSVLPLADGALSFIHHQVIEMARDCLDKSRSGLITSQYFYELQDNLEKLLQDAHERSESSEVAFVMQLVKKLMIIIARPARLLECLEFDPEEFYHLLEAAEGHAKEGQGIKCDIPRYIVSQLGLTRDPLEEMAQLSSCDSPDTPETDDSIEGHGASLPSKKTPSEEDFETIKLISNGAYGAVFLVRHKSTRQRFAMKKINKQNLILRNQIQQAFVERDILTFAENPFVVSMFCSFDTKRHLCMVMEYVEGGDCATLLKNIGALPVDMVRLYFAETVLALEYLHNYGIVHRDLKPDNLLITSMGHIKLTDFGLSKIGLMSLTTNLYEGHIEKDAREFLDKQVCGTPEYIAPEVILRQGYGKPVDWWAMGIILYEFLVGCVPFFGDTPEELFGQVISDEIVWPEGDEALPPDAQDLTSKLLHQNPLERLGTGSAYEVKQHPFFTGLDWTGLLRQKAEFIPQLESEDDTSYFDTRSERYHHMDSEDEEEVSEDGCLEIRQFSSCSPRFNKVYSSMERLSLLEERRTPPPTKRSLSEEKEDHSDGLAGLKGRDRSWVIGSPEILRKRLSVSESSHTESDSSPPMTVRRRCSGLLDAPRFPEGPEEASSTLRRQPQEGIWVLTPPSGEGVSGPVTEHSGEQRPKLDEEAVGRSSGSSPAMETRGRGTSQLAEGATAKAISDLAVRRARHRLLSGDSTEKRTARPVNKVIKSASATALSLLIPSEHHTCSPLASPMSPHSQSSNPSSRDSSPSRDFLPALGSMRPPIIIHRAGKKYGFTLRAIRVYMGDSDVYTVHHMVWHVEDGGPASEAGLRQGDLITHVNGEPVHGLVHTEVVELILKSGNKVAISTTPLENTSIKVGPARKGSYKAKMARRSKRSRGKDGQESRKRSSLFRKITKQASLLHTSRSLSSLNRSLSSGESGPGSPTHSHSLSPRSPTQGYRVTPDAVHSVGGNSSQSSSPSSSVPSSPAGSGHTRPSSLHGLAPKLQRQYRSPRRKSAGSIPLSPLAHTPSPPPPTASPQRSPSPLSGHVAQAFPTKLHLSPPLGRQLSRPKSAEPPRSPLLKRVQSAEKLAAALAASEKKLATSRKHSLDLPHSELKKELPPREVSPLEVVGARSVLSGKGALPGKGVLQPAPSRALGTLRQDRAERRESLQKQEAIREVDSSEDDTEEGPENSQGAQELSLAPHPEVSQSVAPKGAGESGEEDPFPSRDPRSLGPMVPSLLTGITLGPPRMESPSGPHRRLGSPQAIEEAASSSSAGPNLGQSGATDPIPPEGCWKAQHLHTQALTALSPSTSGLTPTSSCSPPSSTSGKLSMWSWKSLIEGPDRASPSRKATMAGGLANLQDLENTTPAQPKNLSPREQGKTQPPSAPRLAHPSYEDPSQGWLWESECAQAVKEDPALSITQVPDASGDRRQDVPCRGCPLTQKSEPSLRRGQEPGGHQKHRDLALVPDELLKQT

T1: GST-AF6 PDZ domain fusion protein (Homo sapiens (Human)) (UniProt P55196)
T1 sequence: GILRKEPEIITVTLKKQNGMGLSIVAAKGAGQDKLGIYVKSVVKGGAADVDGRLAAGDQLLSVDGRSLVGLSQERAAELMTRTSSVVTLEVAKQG

T2: GST-41.8 kD protein (KIAA0751) PDZ domain fusion protein (Mus musculus (Mouse)) (UniProt Q9EQZ7)
T2 sequence: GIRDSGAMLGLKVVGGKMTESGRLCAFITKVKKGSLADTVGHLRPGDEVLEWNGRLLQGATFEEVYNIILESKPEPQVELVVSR

T3: GST-MPP1 PDZ domain fusion protein (Homo sapiens (Human)) (UniProt Q00013)
T3 sequence: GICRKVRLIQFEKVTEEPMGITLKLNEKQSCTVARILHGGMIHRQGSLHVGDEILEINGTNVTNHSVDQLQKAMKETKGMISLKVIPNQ

T4: GST-PDZK1 fusion protein (PDZ domains 2-4) (Homo sapiens) (UniProt Q5T2W1)
T4 sequence: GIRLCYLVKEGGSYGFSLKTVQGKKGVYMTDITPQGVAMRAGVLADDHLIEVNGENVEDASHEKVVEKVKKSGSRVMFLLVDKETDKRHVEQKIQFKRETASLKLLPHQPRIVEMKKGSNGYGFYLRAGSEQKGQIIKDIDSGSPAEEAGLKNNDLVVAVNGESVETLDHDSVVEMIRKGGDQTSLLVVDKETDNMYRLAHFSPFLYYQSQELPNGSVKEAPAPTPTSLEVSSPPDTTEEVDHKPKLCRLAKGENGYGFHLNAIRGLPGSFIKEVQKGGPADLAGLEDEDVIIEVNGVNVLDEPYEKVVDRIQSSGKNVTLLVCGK

T5: TIP1-RFP fusion protein (Homo sapiens) (UniProt O14907)
T5 sequence: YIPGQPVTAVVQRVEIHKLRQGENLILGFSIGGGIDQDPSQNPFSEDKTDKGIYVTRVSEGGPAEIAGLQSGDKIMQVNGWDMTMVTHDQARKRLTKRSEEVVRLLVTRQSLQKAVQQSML

B1: Clasp-1 C-terminal peptide AA1L, biotinylated (peptide)
peptide: ISKATPALPTVSISSSAEV
modifications: biotin at the amino-terminus
B2: Clasp-4 C-terminal peptide AA3L, biotinylated (peptide)
peptide: CAISGTSSDRGYGSPRYAEV
modifications: biotin at the amino-terminus
B3: CD44 C-terminal peptide AA9L, biotinylated (peptide)
peptide: QFMTADETRNLQNVDMKIGV
modifications: biotin at the amino-terminus
B4: BLR-1 C-terminal peptide AA45L, biotinylated (peptide)
peptide: PSWRRSSLSESENATSLTTF
modifications: biotin at the amino-terminus
B5: Spectrin (beta) C-terminal peptide AA32L, biotinylated (peptide)
peptide: SFPPCGHRENVPGQSLVSFV
modifications: biotin at the amino-terminus
B6: VCAM1 C-terminal peptide AA17L, biotinylated (peptide)
peptide: ARKANMKGSYSLVEAQKSKV
modifications: biotin at the amino-terminus
B7: DNAM-1 C-terminal peptide AA22L, biotinylated (peptide)
peptide: TREDIYVNYPTFSRRPKTRV
modifications: biotin at the amino-terminus
B8: CD34 C-terminal peptide AA7L, biotinylated (peptide)
peptide: QATSENGHSARQHVVADTEL
modifications: biotin at the amino-terminus
B9: CD95 (Fas) C-terminal peptide AA13L, biotinylated (peptide)
peptide: KDITSDSENSNFRNEIQSLV
modifications: biotin at the amino-terminus

Experiments:
[1] = target: GST-PSD95 fusion protein (PDZ domains 1-3) (human); assay: G assay: biotinylated peptide on plate-bound GST-PDZ fusion, streptavidin-HRP, OD 450 nm
[2] = target: GST-PSD95 fusion protein (PDZ domains 1-3) (human); assay: A/G plate assays, Table 2 matrix
[3] = target: GST-PSD95 fusion protein (PDZ domains 1-3) (human); assay: A/G assays, told in text
[4] = target: T1, GST-AF6 PDZ domain fusion protein (Homo sapiens (Human)); assay: A/G plate assays, Table 2 matrix
[5] = target: T2, GST-41.8 kD protein (KIAA0751) PDZ domain fusion protein (Mus musculus (Mouse)); assay: A/G plate assays, Table 2 matrix
[6] = target: T1, GST-AF6 PDZ domain fusion protein (Homo sapiens (Human)); assay: A/G assays, told in text
[7] = target: T2, GST-41.8 kD protein (KIAA0751) PDZ domain fusion protein (Mus musculus (Mouse)); assay: A/G assays, told in text
[8] = target: GST-prIL16 fusion protein (PDZ domains 1-2) (Homo sapiens (Human)) (UniProt Q14005); assay: A/G plate assays, Table 2 matrix
[9] = target: T3, GST-MPP1 PDZ domain fusion protein (Homo sapiens (Human)); assay: A/G plate assays, Table 2 matrix
[10] = target: GST-prIL16 fusion protein (PDZ domains 1-2) (Homo sapiens (Human)) (UniProt Q14005); assay: A/G assays, told in text
[11] = target: T3, GST-MPP1 PDZ domain fusion protein (Homo sapiens (Human)); assay: A/G assays, told in text
[12] = target: T4, GST-PDZK1 fusion protein (PDZ domains 2-4) (Homo sapiens); assay: A/G plate assays, Table 2 matrix
[13] = target: T4, GST-PDZK1 fusion protein (PDZ domains 2-4) (Homo sapiens); assay: A/G assays, told in text
[14] = target: KIAA0807 (PDZ domain)-GST fusion protein (human) (UniProt Q6P0Q8); assay: A/G plate assays, Table 2 matrix
[15] = target: KIAA0807 (PDZ domain)-GST fusion protein (human) (UniProt Q6P0Q8); assay: A/G assays, told in text
[16] = target: T5, TIP1-RFP fusion protein (Homo sapiens); assay: pull-down with biotinylated peptide from cell lysate

Binder | binding [2] | binding [3] | binding [9] | binding [11] | also measured
B1 | binds | binds |  |  | binding [1]: binds
B2 | binds | binds |  |  | binding [4]: binds; binding [5]: binds; binding [6]: binds; binding [7]: binds
B3 |  |  | binds | binds | binding [8]: binds; binding [10]: binds
B4 |  |  |  |  | binding [12]: binds; binding [13]: binds
B5 |  |  | binds |  | 
B6 |  |  | binds | binds | 
B7 |  |  | binds | binds | 
B8 | binds | binds |  |  | binding [14]: binds; binding [15]: binds
B9 |  |  |  |  | binding [16]: binds
